{"source": "PubChem BioAssay AID504774, Drosophila RNAi Screening Center – 2011", "aim": "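Fly genes whose loss alters survival after alkylation damage to DNA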 (primary screen)", "cell system": "Drosophila Kc167 cells", "knock-down reagent": "long dsRNA against Drosophila genes, about 0.25 µg dsRNA per well", "timing": "about 6 days: 3 days knock-down, then 3 days with or without MMS", "conditions": "methyl methanesulphonate 0.004% (w/v) for 3 days after knock-down", "measurement": "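ATP-dependent luminescence as a measure of live cells in MMS-exposed wells, quantile normalised within each plate, with replicate values also given as a mean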", "scale": "mean viability with MMS and viability with MMS: higher = more surviving cells after MMS", "note": "In all, the deposit lists about 23,000 reagents; this is a random part of those that have a named target and a result. 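Values are quantile-normalised luminescence on an arbitrary scale; higher means more cells surviving MMS.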 Reagents against one gene are numbered here. Further read-outs or replicates are left out here. No sequences are given here."}
{"gene":"CG1354","reagent no.":1,"mean viability with MMS":3.50e6,"viability with MMS, replicate 1":4.03e6}
{"gene":"Ugt49B2","reagent no.":1,"mean viability with MMS":3.63e6,"viability with MMS, replicate 1":4.18e6}
{"gene":"CG14957","reagent no.":1,"mean viability with MMS":3.51e6,"viability with MMS, replicate 1":3.92e6}
{"gene":"CG9581","reagent no.":1,"mean viability with MMS":3.52e6,"viability with MMS, replicate 1":3.98e6}
{"gene":"CG9581","reagent no.":2,"mean viability with MMS":3.40e6,"viability with MMS, replicate 1":3.95e6}
{"gene":"RpL32","reagent no.":1,"mean viability with MMS":2.90e6,"viability with MMS, replicate 1":3.52e6}
{"gene":"H","reagent no.":1,"mean viability with MMS":3.52e6,"viability with MMS, replicate 1":4.08e6}
{"gene":"CG2126","reagent no.":1,"mean viability with MMS":3.53e6,"viability with MMS, replicate 1":3.95e6}
{"gene":"Cdk8","reagent no.":1,"mean viability with MMS":3.41e6,"viability with MMS, replicate 1":3.87e6}
{"gene":"CG33460","reagent no.":1,"mean viability with MMS":3.55e6,"viability with MMS, replicate 1":3.94e6}
{"gene":"CG8611","reagent no.":1,"mean viability with MMS":3.74e6,"viability with MMS, replicate 1":4.27e6}
{"gene":"CG1927","reagent no.":1,"mean viability with MMS":3.56e6,"viability with MMS, replicate 1":4.01e6}
{"gene":"Rpn13","reagent no.":1,"mean viability with MMS":3.45e6,"viability with MMS, replicate 1":3.80e6}
{"gene":"RpL6","reagent no.":1,"mean viability with MMS":3.14e6,"viability with MMS, replicate 1":3.66e6}
{"gene":"RpL6","reagent no.":2,"mean viability with MMS":2.69e6,"viability with MMS, replicate 1":3.70e6}
{"gene":"CG5026","reagent no.":1,"mean viability with MMS":3.53e6,"viability with MMS, replicate 1":3.99e6}
{"gene":"Gdap2","reagent no.":1,"mean viability with MMS":3.58e6,"viability with MMS, replicate 1":3.95e6}
{"gene":"Gdap2","reagent no.":2,"mean viability with MMS":3.54e6,"viability with MMS, replicate 1":3.92e6}
{"gene":"l(1)G0320","reagent no.":1,"mean viability with MMS":3.39e6,"viability with MMS, replicate 1":4.11e6}
{"gene":"CG4681","reagent no.":1,"mean viability with MMS":3.43e6,"viability with MMS, replicate 1":3.99e6}
{"gene":"Art9","reagent no.":1,"mean viability with MMS":3.50e6,"viability with MMS, replicate 1":3.99e6}
{"gene":"nudE","reagent no.":1,"mean viability with MMS":3.62e6,"viability with MMS, replicate 1":4.14e6}
{"gene":"nudE","reagent no.":2,"mean viability with MMS":3.42e6,"viability with MMS, replicate 1":3.75e6}
{"gene":"meng","reagent no.":1,"mean viability with MMS":3.57e6,"viability with MMS, replicate 1":4.04e6}
